Test results as given in the supplement of paper PMC8256030.
The list shows a part of the results. Single values are uncertain here, since repeats match poorly.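 HEK293T cells were given each compound shortly before transfection with a reporter in which red mCherry is followed by the SARS-CoV-2 frameshift element and then GFP in the −1 frame, so GFP appears only after frameshifting.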

These compounds were tested on HEK293T (assay: percent viability (nuclei count) relative to control; higher = more viable cells). Conditions: 10 µM; 24 h.
Work on `Nc1ccc2cc3ccc(N)cc3nc2c1` yielded a percent viability of 88.4%.
Work on `CNc1cc(OC)c(C(=O)NC2CCN(Cc3ccccc3)C2C)cc1Cl` (configuration not stated) [nemonapride] yielded a percent viability of 188%.
Compound `CC(C)C[C@H](NC(=O)[C@@H](Cc1ccc2ccccc2c1)NC(=O)[C@H](Cc1ccc(O)cc1)NC(=O)[C@H](CO)NC(=O)[C@H](Cc1c[nH]c2ccccc12)NC(=O)[C@H](Cc1cnc[nH]1)NC(=O)[C@@H]1CCC(=O)N1)C(=O)N[C@@H](CCCN=C(N)N)C(=O)N1CCC[C@H]1C(=O)NCC(N)=O` [nafarelin] has a percent viability of 213%.
`CCC(C)C(C(=O)OC1CC[N+](C)(C)CC1)c1ccccc1` (configuration not stated) [pentapiperium metilsulfate] showed a percent viability of 102%.
`O=C(Oc1ccccc1C(=O)O)c1ccccc1O` [salsalate] gave a percent viability of 363%.
`CS(=O)(=O)c1ccc2c(c1)N(CCCN1CCC(C(N)=O)CC1)c1ccccc1S2` [metopimazine] was tested, and the percent viability was 165%.
`CCOC(=O)NNc1nncc2ccccc12` was tested, and the percent viability was 198%.
In the case of `Cc1cc(-n2c(=O)[nH]c(=O)n(C)c2=O)ccc1Oc1ccc(SC(F)(F)F)cc1` [toltrazuril], the percent viability is reported as 294%.
With `Nc1nc(=O)c2c([nH]1)NCC(CNc1ccc(C(=O)N[C@@H](CCC(=O)O)C(=O)O)cc1)N2C=O` (some centres not stated) [Leucovorin] the percent viability was 218%.
`Cc1ccc(Nc2c(F)cccc2Cl)c(CC(=O)O)c1` [lumiracoxib] was tested, and the percent viability was 102%.
In the case of `CCCCC[C@H](O)/C=C/[C@@H]1[C@H]2C/C(=C/CCCC(=O)O)O[C@H]2C[C@H]1O` [Epoprostenol], the percent viability is reported as 210%.
With `S=C1NCCC(COc2ccccc2)O1` (configuration not stated) [tifemoxone] the percent viability was 232%.
